Measurements reported in PubChem BioAssay AID1259254 (NCATS, 2017)
Shown is an unselected part of about 59,000 reagents tested. About 1,550 of all reagents (2.6%) were called active. 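G2 share is only a proxy for re-replication; each gene was hit by three separate siRNAs, and active genes were retested.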 Unmarked entries are inactive. Not all columns of the deposit are shown. Reagent sequences are not shown. The record does not give: the amount of reagent.

- Aim: 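Genome-wide screen for genes that prevent DNA re-replication in cancer cells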 (primary screen)
- Cell system: human HCT116 colorectal cancer cells
- Reagent: single siRNA against human genes
- Duration: 3 days
- Read-out: 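Imaged Hoechst DNA stain sorts each cell into a cycle phase by DNA amount; per plate, G2 fraction set to 0% for non-targeting and 100% for GMNN siRNA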
- Direction: G2 robust z-score and G2 cells, % of GMNN control: higher = more G2 cells, more excess DNA replication
- Hit rule: 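Active siRNAs have a G2 robust z of 5 or more median absolute deviations over the median, which in these data means about 38% or higher of GMNN control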

USP11 (ubiquitin specific peptidase 11) [SID160719755]: G2 robust z-score = 0.747; G2 cells, % of GMNN control = 8.22
USP11 (ubiquitin specific peptidase 11) [SID160719757]: G2 robust z-score = 1.83; G2 cells, % of GMNN control = 15.8
USP11 (ubiquitin specific peptidase 11) [SID160719758]: G2 robust z-score = -0.288; G2 cells, % of GMNN control = 0.944
H2ACP1 (H2AC histone family pseudogene 1) [SID160770663]: G2 robust z-score = -0.477; G2 cells, % of GMNN control = -0.39
H2ACP1 (H2AC histone family pseudogene 1) [SID160770664]: G2 robust z-score = 3.83; G2 cells, % of GMNN control = 29.9
H2ACP1 (H2AC histone family pseudogene 1) [SID160770665]: G2 robust z-score = 1.15; G2 cells, % of GMNN control = 11.1
PARP10 (poly(ADP-ribose) polymerase family member 10) [SID160724640]: G2 robust z-score = -0.757; G2 cells, % of GMNN control = -2.36
PARP10 (poly(ADP-ribose) polymerase family member 10) [SID160752831]: G2 robust z-score = 1.16; G2 cells, % of GMNN control = 11.1
PARP10 (poly(ADP-ribose) polymerase family member 10) [SID160752832]: G2 robust z-score = -0.0849; G2 cells, % of GMNN control = 2.37
MOCS1 (molybdenum cofactor synthesis 1) [SID160777397]: G2 robust z-score = 5.32 (active); G2 cells, % of GMNN control = 40.4
MOCS1 (molybdenum cofactor synthesis 1) [SID160777398]: G2 robust z-score = -0.707; G2 cells, % of GMNN control = -2.01
MOCS1 (molybdenum cofactor synthesis 1) [SID160777399]: G2 robust z-score = -0.0538; G2 cells, % of GMNN control = 2.59

Next part; the last 3 above are carried over.
MOCS1 (molybdenum cofactor synthesis 1) [SID160777397]: G2 robust z-score = 5.32 (active); G2 cells, % of GMNN control = 40.4
MOCS1 (molybdenum cofactor synthesis 1) [SID160777398]: G2 robust z-score = -0.707; G2 cells, % of GMNN control = -2.01
MOCS1 (molybdenum cofactor synthesis 1) [SID160777399]: G2 robust z-score = -0.0538; G2 cells, % of GMNN control = 2.59
RPL9P11 (ribosomal protein L9 pseudogene 11) [SID160768698]: G2 robust z-score = -0.254; G2 cells, % of GMNN control = 1.18
RPL9P11 (ribosomal protein L9 pseudogene 11) [SID160768699]: G2 robust z-score = -0.137; G2 cells, % of GMNN control = 2
RPL9P11 (ribosomal protein L9 pseudogene 11) [SID160768701]: G2 robust z-score = 0.644; G2 cells, % of GMNN control = 7.5
TMT1A (thiol methyltransferase 1A) [SID160737093]: G2 robust z-score = -0.153; G2 cells, % of GMNN control = 1.89
TMT1A (thiol methyltransferase 1A) [SID160737094]: G2 robust z-score = 1.57; G2 cells, % of GMNN control = 14
TMT1A (thiol methyltransferase 1A) [SID160737095]: G2 robust z-score = -1.48; G2 cells, % of GMNN control = -7.45
EPHA5 (EPH receptor A5) [SID160760898]: G2 robust z-score = -1.56; G2 cells, % of GMNN control = -7.99
EPHA5 (EPH receptor A5) [SID160760909]: G2 robust z-score = -1.31; G2 cells, % of GMNN control = -6.21
EPHA5 (EPH receptor A5) [SID160760919]: G2 robust z-score = 0.785; G2 cells, % of GMNN control = 8.49
HRCT1 (histidine rich carboxyl terminus 1) [SID160734015]: G2 robust z-score = -0.714; G2 cells, % of GMNN control = -2.05
HRCT1 (histidine rich carboxyl terminus 1) [SID160770078]: G2 robust z-score = -0.685; G2 cells, % of GMNN control = -1.85
HRCT1 (histidine rich carboxyl terminus 1) [SID160770079]: G2 robust z-score = -0.319; G2 cells, % of GMNN control = 0.725
